According to patent US20040005688A1:
These are yes or no findings as the source states them, for the method shown. For part of these data: Binding seen in cells or lysates may run through a third protein. Some binding calls cover weakened binding; strength is not graded here. For part of these data: Where a sequence is shown, tags or fusion partners need not be part of it.

Legend:
[1] = molecular target: GST-fusion protein containing the middle region of Dsh (GST-DM) (Drosophila) (UniProt P51140); experiment: GST pull-down from lysates, and re-binding of kinase eluted from Dsh immuno-complex; in vitro kinase assay
[2] = molecular target: T1, GST-DM5 (GST fusion of the 36 amino acid DM5 segment of Dsh, amino acids 214-249) (Drosophila); experiment: GST pull-down with segments of the DM region, in vitro kinase assay
T1 sequence: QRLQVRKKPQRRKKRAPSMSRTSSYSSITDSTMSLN

[3] = molecular target: T1, GST-DM5 (GST fusion of the 36 amino acid DM5 segment of Dsh, amino acids 214-249) (Drosophila); experiment: GST-DM5 precipitation, in vitro kinase assay
[4] = molecular target: T1, GST-DM5 (GST fusion of the 36 amino acid DM5 segment of Dsh, amino acids 214-249) (Drosophila); experiment: restatement of Example 2
[5] = molecular target: Dishevelled (Dsh) protein, endogenous, from Drosophila embryos and Clone-8 cells (Drosophila) (UniProt P51140); experiment: co-immunoprecipitation with endogenous Dsh
[6] = molecular target: T1, GST-DM5 (GST fusion of the 36 amino acid DM5 segment of Dsh, amino acids 214-249) (Drosophila); experiment: GST-DM5 affinity chromatography; activity eluted in a 0.2 to 0.6 M NaCl gradient
[7] = molecular target: Dishevelled (Dsh) protein, endogenous, from Drosophila embryos and Clone-8 cells (Drosophila) (UniProt P51140); experiment: summary of Examples 1 and 2
[8] = molecular target: Dishevelled (Dsh) protein, endogenous, from Drosophila embryos and Clone-8 cells (Drosophila) (UniProt P51140); experiment: restatement of earlier examples
[9] = molecular target: Dishevelled (Dsh) protein, endogenous, from Drosophila embryos and Clone-8 cells (Drosophila) (UniProt P51140); experiment: co-immunoprecipitation from Clone-8 cells, Western blot
[10] = molecular target: GST-fusion protein containing the middle region of Dsh (GST-DM) (Drosophila) (UniProt P51140); experiment: GST pull-down, in vitro kinase assay
[11] = molecular target: Dishevelled (Dsh) protein, endogenous, from Drosophila embryos and Clone-8 cells (Drosophila) (UniProt P51140); experiment: co-immunoprecipitation with endogenous Dsh, high salt elution
[12] = molecular target: GST-fusion protein containing the middle region of Dsh (GST-DM) (Drosophila) (UniProt P51140); experiment: GST pull-down from lysates, in vitro kinase assay

- binding [1]: binds
- binding [2]: binds
- binding [3]: binds
- binding [4]: binds
- binding [5]: binds
- binding [6]: binds
- binding [7]: binds
- binding [8]: binds
- binding [9]: binds
- binding [10]: binds
- binding [11]: binds
- binding [12]: binds
B1: Dishevelled Associated Kinase (DAK), endogenous kinase activity from Drosophila embryo and Clone-8 cell lysates (enzyme)
chain: MSTAMRTTLQSVPEALPADSVSNGTASNVAAPAAPVSSATNAVPPLAAVSSTTATYATNSISTSSHSVKDQQQQQQQQQHDSANANIVSLPPTTTPVANTNTMMPIVTSSNSATSNSTAATPTPASGAAATGGVGSVSQGPATVSASAANTNHSHQHSHQHHHHVANNMTTDGARLSSNNSAVVASSAINHHHHHTPGSGVAPTVNKNVLSTHSAHPSAIKQRTSSAKGSPNMQMRSSAPMRWRATEEHIGKYKLIKTIGKGNFAKVKLAKHLPTGKEVAIKIIDKTQLNPGSLQKLFREVRIMKMLDHPNIVKLFQVIETEKTLYLIMEYASGGEVFDYLVLHGRMKEKEARVKFRQIVSAVQYCHQKRIIHRDLKAENLLLDSELNIKIADFGFSNEFTPGSKLDTFCGSPPYAAPELFQGKKYDGPEVDVWSLGVILYTLVSGSLPFDGSTLRELRERVLRGKYRIPFYMSTDCENLLRKFLVLNPAKRASLETIMGDKWMNMGFEEDELKPYIEPKADLADPKRIEALVAMGYNRSEIEASLSQVRYDDVFATYLLLGRKSTDPESDGSRSGSSLSLRNISGNDAGANAGSASVQSPTHRGVHRSISASSTKPSRRASSGAETLRVGPTNAAATVAAATGAVGAVNPSNNYNAAGSAADRASVGSNFKRQNTIDSATIKENTARLAAQNQRPASATQKMLTTADTTLNSPAKPRTATKYDPTNGNRTVSGTSGIIPRRSTTLYEKTSSTEKTNVIPAETKMASAVKSSRHFPRNVPSRSTFHSGQTRARNNTALEYSGTSGASGDSSHPGRMSFFSKLSSRFSKRPNQ
